Source: PubChem BioAssay AID602254 (Broad Institute, 2012)
The campaign covered roughly 1,000 compounds. Fewer than 10 were called active.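 Rule for the calls: active = fitted half-maximal concentration no higher than twice the top valid tested dose, with signal falling; inconclusive = flat curve with 30 to 70% inhibition, or poor fit; inactive = the rest.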 Some of the results follow. Measured potencies and affinities stand elsewhere.

These compounds were tested against Golgi-associated PDZ and coiled-coil motif-containing protein (Homo sapiens) (UniProt Q9HD26) (assay: CAL PDZ domain peptide-binding inhibitors, dose response, biochemical, fluorescence polarization, untagged CAL PDZ, cherry-pick, set 2 (AID 602254;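 note: 0% = DMSO neutral control and -100% = unlabeled peptide PRC23 positive control; more negative means stronger blocking of peptide binding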)). Conditions: Purified CAL PDZ, TMR peptide fluorescence polarization; at 60 µM (top of the series).

Activity change, negative = inhibition, inactive:
CC(=O)c1cc(Cl)ccc1OCC(=O)Nc1cccc(S(=O)(=O)N2CCCC2)c1 6.73%
COc1ccc(CCNS(=O)(=O)c2ccc(-n3cnnn3)c(OC)c2)cc1OC 1.4%
N#Cc1c(N)c(C#N)c(-c2ccc(O)cc2)c2c1CCCC2 -0.315%
O=C(O)c1ccccc1CSc1nnnn1-c1ccccc1 0.49%
C/C(=N\NS(C)(=O)=O)c1ccccc1 -0.401%
CCCCc1ccc(S(=O)(=O)Nc2nnc(C)s2)cc1 -0.202%
COc1ccccc1CNc1ccc2nnc(CCNC(=O)c3ccccc3)n2n1 9.53%
Cc1c(C(=O)N2CCCCC2)c(S(=O)(=O)N2CCC(C)CC2)c(C)n1C -2.2%
Cc1c(C(=O)N2CCCCC2)c(S(=O)(=O)NCc2ccc(Cl)cc2)c(C)n1C -4.68%
Cc1ccc(C(c2nnnn2C2CCCCC2)N2CCc3ccccc32)cc1 (stereo unspecified) 0.143%
N#CCCN(Cc1ccccc1)C(=O)c1cccs1 8.34%
CN(C)CCCNC(=S)Nc1ccc(Oc2ccccc2)cc1 -9.71%
CCn1nc(C(=O)Nc2cc(Cl)ccc2-n2cncn2)c2ccccc2c1=O 1.96%
COc1ccccc1NC(=O)Cn1cnc2c(cnn2-c2ccccc2)c1=O -2.97%
O=C(Nc1cccc(C(=O)N2CCCCC2)c1)C1CC1 -0.502%
CCOc1ccccc1C(=O)NCC(=O)OCc1csc(CC(=O)Nc2ccc(C)cc2)n1 -1.29%
COc1ccccc1-n1cc(-c2ccccc2)c2c(=S)nc[nH]c21 2.01%
C#CCN1[C@@H]2CCN(C2)c2cc(Br)ccc2S1(=O)=O -14.6%
Cc1cccc(C)c1NC(=O)NCCCN1CCN(c2ccccc2)CC1 2.69%
Cc1ccc(NS(=O)(=O)c2cccc(C(=O)NC3CCN(Cc4ccccc4)CC3)c2)cc1 1.86%
COc1ccc(CCNc2nc(-c3cccc(NC(C)=O)c3)cs2)cc1OC -0.077%
CC(=O)n1cc(/C=N/NC(=O)c2ccccc2Cl)c2ccccc21 2.62%
Cc1cccc(C(=O)OC(C)C(=O)N2CCc3ccccc3C2)c1C (stereo unspecified) -1.26%
CCC(C)NC(=O)c1ccccc1-c1ccccc1C(=O)NC(C)CC (stereo unspecified) 1.82%
COc1ccc(-c2[nH]ncc2CNC(C)CCn2cccn2)cc1F (stereo unspecified) -0.462%
O=c1[nH]c2ccccc2cc1CN(CC1CCCO1)S(=O)(=O)c1ccccc1 (stereo unspecified) 1.42%

Two compounds picked at random from the list so far:
Activity change, negative = inhibition, inactive:
CCCCc1ccc(S(=O)(=O)Nc2nnc(C)s2)cc1 -0.202%
O=C(O)c1ccccc1CSc1nnnn1-c1ccccc1 0.49%
